According to the supplement of paper PMC4604168 (melanoma cell lines):
The list shows a part of the results. Many values rest on one well or one pass, so single values are uncertain.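 The apoptosis fraction was the count of cleaved-PARP antibody-stained nuclei relative to all DNA-stained nuclei, imaged in 1,536-well plates. Screening doses were set so most cells survived, and baseline and induced cleaved-PARP levels vary greatly across cell lines.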

Test system: SkMel2
Test: cleaved PARP positive nuclei fraction relative to DMSO control; melanoma cells; higher = more apoptosis
Details: library dose: low library concentration; 72 h

| SMILES | cleaved PARP positive nuclei fraction [%] |
| --- | --- |
| COc1cc([C@@H]2c3cc4c(cc3[C@@H](O[C@@H]3O[C@@H]5CO[C@@H](C)O[C@H]5[C@H](O)[C@H]3O)[C@H]3COC(=O)[C@H]23)OCO4)cc(OC)c1O [etoposide] + CC1(C)CCC(c2ccc(Cl)cc2)=C(CN2CCN(c3ccc(C(=O)NS(=O)(=O)c4ccc(N[C@H](CCN5CCOCC5)CSc5ccccc5)c(S(=O)(=O)C(F)(F)F)c4)cc3)CC2)C1 [ABT263] (first compound 0.02 µM, partner dose 0.4 µM) | 231 |
| Cc1ccc(Nc2nccc(N(C)c3ccc4c(C)n(C)nc4c3)n2)cc1S(N)(=O)=O [Pazopanib] + C=CCNC1=C2C[C@@H](C)C[C@H](OC)[C@H](O)[C@@H](C)/C=C(\C)[C@H](OC(N)=O)[C@@H](OC)/C=C\C=C(/C)C(=O)NC(=CC1=O)C2=O [Tanespimycin] (first compound 0.4 µM, partner dose 0.002 µM) | 149 |
| O=C(Nc1cc(C(F)(F)F)cc(C(F)(F)F)c1)c1cc(Cl)ccc1O + Cn1c(=O)n(-c2ccc(C(C)(C)C#N)cc2)c2c3cc(-c4cnc5ccccc5c4)ccc3ncc21 [NVP-BEZ235] (first compound 0.016 µM, partner dose 0.004 µM) | 88.4 |
| Cc1cn(-c2cc(NC(=O)c3ccc(C)c(Nc4nccc(-c5cccnc5)n4)c3)cc(C(F)(F)F)c2)cn1 [nilotinib] + Cc1nc(Nc2ncc(C(=O)Nc3c(C)cccc3Cl)s2)cc(N2CCN(CCO)CC2)n1 [dasatanib] (first compound 0.2 µM, partner dose 0.004 µM) | 70.1 |
